# Substitutions are numbered along the chain they refer to. The list shows a part of the results. For some assays here: At the low end of the ranking the order means little.
# Legend:
# Settings in all cases: yeast three-hybrid, YBZ-1, SC-Leu-His + 0.5 mM 3-AT, 4 days
# [1] = target: T1, PUM1 PUF domain R6-VYC N1043V + Q1047C (Homo sapiens) (UniProt Q14671)
# T1 sequence: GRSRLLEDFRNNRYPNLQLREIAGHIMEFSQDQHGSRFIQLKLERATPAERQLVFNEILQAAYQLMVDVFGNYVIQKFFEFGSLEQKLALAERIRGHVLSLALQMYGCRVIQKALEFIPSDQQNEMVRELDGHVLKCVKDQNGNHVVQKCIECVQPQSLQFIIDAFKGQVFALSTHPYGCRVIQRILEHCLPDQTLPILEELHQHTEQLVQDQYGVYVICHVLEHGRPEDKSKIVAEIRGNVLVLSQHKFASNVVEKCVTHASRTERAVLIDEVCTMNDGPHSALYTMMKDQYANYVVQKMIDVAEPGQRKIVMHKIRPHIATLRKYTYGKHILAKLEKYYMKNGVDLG
# [2] = target: T2, PUM1 PUF domain R6-VYH N1043V + Q1047H (UniProt Q14671)
# T2 sequence: T1 sequence with C220H
# [3] = target: T3, PUM1 PUF domain R6-YRI N1043Y + Y1044R + Q1047I (UniProt Q14671)
# T3 sequence: T1 sequence with V216Y, Y217R, C220I
# [4] = target: T4, PUM1 PUF domain R7-IMR S1079I + N1080M + E1083R (UniProt Q14671)
# T4 sequence: T1 sequence with V216N, C220Q, S252I, N253M, E256R
# [5] = target: T5, PUM1 PUF domain R8-KKA N1122K + Y1123K + Q1126A (Homo sapiens) (UniProt Q14671)
# T5 sequence: T1 sequence with V216N, C220Q, N295K, Y296K, Q299A
# [6] = target: T6, PUM1 PUF domain R8-KKV N1122K + Y1123K + Q1126V (Homo sapiens) (UniProt Q14671)
# T6 sequence: T1 sequence with V216N, C220Q, N295K, Y296K, Q299V
# [7] = target: T7, PUM1 PUF domain R6-VWQ N1043V + Y1044W (UniProt Q14671)
# T7 sequence: T1 sequence with Y217W, C220Q
# [8] = target: T8, PUM1 PUF domain R6-VWR N1043V + Y1044W + Q1047R (UniProt Q14671)
# T8 sequence: T1 sequence with Y217W, C220R
# [9] = target: T9, PUM1 PUF domain R6-VWT N1043V + Y1044W + Q1047T (UniProt Q14671)
# T9 sequence: T1 sequence with Y217W, C220T
# [10] = target: T10, PUM1 PUF domain R6-VYR N1043V + Q1047R (UniProt Q14671)
# T10 sequence: T1 sequence with C220R
# [11] = target: T11, PUM1 PUF domain R6-WHG N1043W + Y1044H + Q1047G (UniProt Q14671)
# T11 sequence: T1 sequence with V216W, Y217H, C220G
# [12] = target: T12, PUM1 PUF domain R6-WWA N1043W + Y1044W + Q1047A (Homo sapiens) (UniProt Q14671)
# T12 sequence: T1 sequence with V216W, Y217W, C220A
# [13] = target: T13, PUM1 PUF domain R6-WWG N1043W + Y1044W + Q1047G (Homo sapiens) (UniProt Q14671)
# T13 sequence: T1 sequence with V216W, Y217W, C220G
# [14] = target: T14, PUM1 PUF domain R6-WWR N1043W + Y1044W + Q1047R (Homo sapiens) (UniProt Q14671)
# T14 sequence: T1 sequence with V216W, Y217W, C220R
# [15] = target: T15, PUM1 PUF domain R6-WWS N1043W + Y1044W + Q1047S (UniProt Q14671)
# T15 sequence: T1 sequence with V216W, Y217W, C220S
# [16] = target: T16, PUM1 PUF domain R6-WYR N1043W + Q1047R (UniProt Q14671)
# T16 sequence: T1 sequence with V216W, C220R
# [17] = target: T17, PUM1 PUF domain R6-YWR N1043Y + Y1044W + Q1047R (UniProt Q14671)
# T17 sequence: T1 sequence with V216Y, Y217W, C220R
# [18] = target: T18, PUM1 PUF domain R6-YWV N1043Y + Y1044W + Q1047V (UniProt Q14671)
# T18 sequence: T1 sequence with V216Y, Y217W, C220V
# [19] = target: T19, PUM1 PUF domain R6-WHG N1043W + Y1044H + Q1047G (Homo sapiens) (UniProt Q14671)
# T19 sequence: T1 sequence with V216W, Y217H, C220G
# [20] = target: T20, PUM1 PUF domain R6-WWS N1043W + Y1044W + Q1047S (Homo sapiens) (UniProt Q14671)
# T20 sequence: T1 sequence with V216W, Y217W, C220S
sequence,measurement,setting,value
GGCUAGAACUAGUGGAUCCCCCGGCGCCCGGCGGCUCGAGCCCGGGUAAGUGUAAAUAGUCUGCAUGCCGCCGGGCGCCAUGCCUGCAGGUCGACUCUAGAAAACAUG,binding signal (log2 enrichment (interaction score)),[1],-0.93
same,binding signal (log2 enrichment (interaction score)),[2],< -6.93
same,binding signal (log2 enrichment (interaction score)),[3],-6.06
same,binding signal (log2 enrichment (interaction score)),[4],-6.68
same,binding signal (log2 enrichment (interaction score)),[5],1.55
same,binding signal (log2 enrichment (interaction score)),[6],-0.37
GGCUAGAACUAGUGGAUCCCCCGGCGCCCGGCGGCUCGAGCCCGGGUAAGUGGAAAUAGUCUGCAUGCCGCCGGGCGCCAUGCCUGCAGGUCGACUCUAGAAAACAUG,binding signal (log2 enrichment (interaction score)),[7],< -7.68
same,binding signal (log2 enrichment (interaction score)),[8],-6.31
same,binding signal (log2 enrichment (interaction score)),[9],< -7.92
same,binding signal (log2 enrichment (interaction score)),[10],< -8.48
same,binding signal (log2 enrichment (interaction score)),[11],< -9.13
same,binding signal (log2 enrichment (interaction score)),[12],-5.5
same,binding signal (log2 enrichment (interaction score)),[13],-0.87
same,binding signal (log2 enrichment (interaction score)),[14],-0.9
same,binding signal (log2 enrichment (interaction score)),[15],< -7.85
same,binding signal (log2 enrichment (interaction score)),[16],< -8.8
same,binding signal (log2 enrichment (interaction score)),[17],< -7.57
same,binding signal (log2 enrichment (interaction score)),[18],< -8.1
GGCUAGAACUAGUGGAUCCCCCGGCGCCCGGCGGCUCGAGCCCGGGUAAGUGAAAAUAGUCUGCAUGCCGCCGGGCGCCAUGCCUGCAGGUCGACUCUAGAAAACAUG,binding signal (log2 enrichment (interaction score)),[19],-4.35
same,binding signal (log2 enrichment (interaction score)),[20],-0.01

# Exported tab-delimited: entries from further up.
sequence	measurement	setting	value
GGCUAGAACUAGUGGAUCCCCCGGCGCCCGGCGGCUCGAGCCCGGGUAAGUGUAAAUAGUCUGCAUGCCGCCGGGCGCCAUGCCUGCAGGUCGACUCUAGAAAACAUG	binding signal (log2 enrichment (interaction score))	[1]	-0.93
GGCUAGAACUAGUGGAUCCCCCGGCGCCCGGCGGCUCGAGCCCGGGUAAGUGGAAAUAGUCUGCAUGCCGCCGGGCGCCAUGCCUGCAGGUCGACUCUAGAAAACAUG	binding signal (log2 enrichment (interaction score))	[8]	-6.31
same	binding signal (log2 enrichment (interaction score))	[11]	< -9.13
same	binding signal (log2 enrichment (interaction score))	[12]	-5.5
GGCUAGAACUAGUGGAUCCCCCGGCGCCCGGCGGCUCGAGCCCGGGUAAGUGAAAAUAGUCUGCAUGCCGCCGGGCGCCAUGCCUGCAGGUCGACUCUAGAAAACAUG	binding signal (log2 enrichment (interaction score))	[20]	-0.01

# — article PMC8384837
